Results are given in words; binding and its absence hold for the method and conditions named. Some entries that bind do so weakly or less than the wild type.
What was measured:
[1] = molecular target: full-length human CSF-1R expressed on cells (human) (UniProt P07333); assay: flow cytometry on transfected HEK293F cells, IgG at 100 nM
[2] = molecular target: human CSF1R-His (Acrobiosystem, CSR-H5228) (human) (UniProt P07333); assay: ForteBio; TAC2205 binds CSF1R-His held by immobilised TAC2188
[3] = molecular target: full-length human CSF-1R expressed on cells (human) (UniProt P07333); assay: flow cytometry on HEK293F cells transiently expressing full-length human CSF-1R (IRES-EGFP vector), IgG at 100 nM, Alexa Fluor 647 anti-human Fc detection [Conti.]

Protein sequences, listed by entry. Tags and fused reporters are not part of them. Lines headed by an entry give the natural chain unless they say otherwise; changes in a name come on top. Residues count along the entry.
UniProt P07333: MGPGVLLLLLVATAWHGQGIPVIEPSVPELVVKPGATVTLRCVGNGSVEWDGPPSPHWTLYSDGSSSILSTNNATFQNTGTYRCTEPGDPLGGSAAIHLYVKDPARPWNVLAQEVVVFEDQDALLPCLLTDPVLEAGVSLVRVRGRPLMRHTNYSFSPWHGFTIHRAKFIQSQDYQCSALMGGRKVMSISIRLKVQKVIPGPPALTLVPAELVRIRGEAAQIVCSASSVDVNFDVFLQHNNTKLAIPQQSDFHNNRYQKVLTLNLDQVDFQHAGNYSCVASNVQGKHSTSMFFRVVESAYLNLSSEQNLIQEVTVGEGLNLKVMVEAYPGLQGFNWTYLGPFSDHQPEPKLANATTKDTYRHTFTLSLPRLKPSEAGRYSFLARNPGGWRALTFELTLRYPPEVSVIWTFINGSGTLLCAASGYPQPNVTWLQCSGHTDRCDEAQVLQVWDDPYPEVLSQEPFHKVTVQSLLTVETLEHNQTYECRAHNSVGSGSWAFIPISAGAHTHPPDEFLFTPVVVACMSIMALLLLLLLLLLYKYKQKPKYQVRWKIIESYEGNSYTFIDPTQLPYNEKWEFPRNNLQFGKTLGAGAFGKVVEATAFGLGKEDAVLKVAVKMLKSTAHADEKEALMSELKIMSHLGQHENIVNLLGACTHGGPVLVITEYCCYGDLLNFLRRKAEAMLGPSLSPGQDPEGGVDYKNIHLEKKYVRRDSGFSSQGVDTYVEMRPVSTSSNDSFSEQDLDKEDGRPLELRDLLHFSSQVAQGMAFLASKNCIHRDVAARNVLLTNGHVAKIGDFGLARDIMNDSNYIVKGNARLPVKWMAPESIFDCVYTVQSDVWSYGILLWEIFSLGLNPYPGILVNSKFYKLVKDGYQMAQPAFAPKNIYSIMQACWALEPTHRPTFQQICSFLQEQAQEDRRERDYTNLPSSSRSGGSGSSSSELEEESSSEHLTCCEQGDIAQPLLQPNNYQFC
full-length human CSF-1R expressed on cells: residues 20-972 of P07333
human CSF1R-His (Acrobiosystem, CSR-H5228): residues 20-512 of P07333

- binding [1]: binds
- binding [2]: binds
- binding [3]: binds
B1: TAC2205 (antibody, human IgG4, V domains shown)
VH: QVQLVQSGAEVKKPGSSVKVSCKASGYTFTDNYMIWVRQAPGQGLEWMGDINPYNGGTTFNQKFKGRVTITADKSTSTAYMELSSLRSEDTAVYYCARESPYFSNLYVMDYWGQGTLVTVSS
VL: EIVLTQSPATLSLSPGERATLSCKASQSVDYDGDNYMNWYQQKPGQAPRLLIYAASNLESGIPARFSGSGSGTDFTLTISSLEPEDFAVYYCHLSNEDLSTFGGGTKVEIK

From US20230203170A1 (DRAGONBOAT BIOPHARMACEUTICAL SHANGHAI, published 2023)
